Assay: soluble on expression in E. coli; label from the status in PepcDB or PDB records

## GHMAPLARLAANSARLLQLHKTVPQWHLTDGHLSIKRKFQFSDFNEAWGFMSRVALYADKVDHHPNWYNVYNTVDVELSTHDAAGLTEKDFALAKFMDDAAKNFEK
  soluble on expression in E. coli: soluble

## LLLQSPAVKFITNPEFFTVLHANYSAYRVFTSSTCLKHMILKVRRDARNFERYQHNRDLVNFINMFADTRLELPRGWEIKTDQQGKSFFVDHNSRATTFIDPRIPLQNG
  soluble on expression in E. coli: soluble

## MAGDPMPKYRSATTTHGRNMAGARALWRATGMTDADFGKPIIAVVNSFTQFVPGHVHLRDLGKLVAEQIEAAGGVAKEFNTIAVDDGIAMGHGGMLYSLPSRELIADSVEYMVNAHCADAMVCISNCDKITPGMLMASLRLNIPVIFVSGGPMEAGKTKLSDQIIKLDLVDAMIQGADPKVSDSQSDQVERSACPTCGSCSGMFTANSMNCLTEALGLSQPGNGSLLATHADRKQLFLNAGKRIVELTKRYYEQNDESALPRNIASKAAFENAMTLDIAMGGSTNTVLHLLAAAQEAEIDFTMSDIDKLSRKVPQLCKVAPSTQKYHMEDVHRAGGVIGILGELDRAGLLNRDVKNVLGLTLPQTLEQYDVMLTQDDAVKNMFRAGPAGIRTTQAFSQDCRWDTLDDDRANGCIRSLEHAYSKDGGLAVLYGNFAENGCIVKTAGVDDSILKFTGPAKVYESQDDAVEAILGGKVVAGDVVVIRYEGPKGGPGMQEMLYPTSFLKSMGLGKACALITDGRFSGGTSGLSIGHVSPEAASGGSIGLIEDGDLIAIDIPNRGIQLQVSDAELAARREAQDARGDKAWTPKNRERQVSFALRAYASLATSADKGAVRDKSKLGGAAALEHHHHHH
  soluble on expression in E. coli: not soluble

## MANGIKRQHEPPRIVGDLLQSEIAEKQARSIRCQMTIAKLPLVKDIEQFDFTGTPVNEALVRELATRSLVADQRNVVLIGGTGTGKSHLAIAIARALIRNGTRGRFFNVVDLVNKLEAETRSGKQGRTADYLGRLDFVILDELGYLPFAQAGGQLLFHLISRLYERTSIIVTTNLAFGEWPTVFGDAKMTTALLDRLTHHCEIIETGNESWRFKNRALEHHHHHH
  soluble on expression in E. coli: soluble

## MDDDNNRTLDFKEFMKGLNDYAVVMEKEEVEELFRRFDKDGNGTIDFNEFLLTLRPPMSRARKEVIMQAFRKLDKTGDGVITIEDLREVYNAKHHPKYQNGEWSEEQVFRKFLDNFDSPYDKDGLVTPEEFMNYYAGVSASIDTDVYFIIMMRTAWKL
  soluble on expression in E. coli: soluble

## MEQKIKFPRSQKVYLPGKLYPNIRVAMRKVEQVPSVSFEGEEKIATPNPEVYVYDTSGPFSDPSMSIDLKKGLPRLREEWIVGRGDVEQLPEITSEYGQMRRDDKSLDHLRFEHIALPYRAKKGEAITQMAYAKRGIITPEMEYVAIRENMNCEELGIETHITPEFVRKEIAEGHAVLPANINHPEAEPMIIGRNFLVKINTNIGNSATTSSIDEEVEKALWSCKWGGDTLMDLSTGENIHETREWIIRNCPVPVGTVPIYQALEKVNGVVEDLNWEIYRDTLIEQCEQGVDYFTIHAGIRRHNVHLADKRLCGIVSRGGSIMSKWCLVHDQESFLYEHFDDICDILAQYDVAVSLGDGLRPGSIHDANDEAQFAELDTMGELVLRAWEKNVQAFIEGPGHVPMHKIKENMERQIEKCHDAPFYTLGPLVTDIAPGYDHITSAIGAAQIGWLGTAMLCYVTPKEHLALPDKEDVRVGVITYKIAAHAADLAKGHPGAQVRDNALSKARYEFRWKDQFDLSLDPERAQGYFRAGHHIDGEYCTMCGPNFCAMRLSRDLKKNAKSDK
  soluble on expression in E. coli: not soluble

## MGLVKVIKNKAYFKRYQVKLRRRREGKTDYYARKRLTVQDKNKYNTPKYRLIVRITNKDVVAQLAYSKIEGDVVVASAYSHELPRYGLKVGLTNYAAAYATGLLLARRHLKTIGLDSTYKGHEELTGEDYNVEEEGDRAPFKAVLDIGLARTTTGSKIFAVMKGVADGGINVPHSESRFFGFDQESKEYNAEAHRDRILGKHVADYMTYLKEEDEDRYKRQFSKFLAAGLNADNLVATYQKVHSAIRADASPAAKKAAKPSKRHTAKRLTYDERKQRVADKKALLLQLKEQQE
  soluble on expression in E. coli: not soluble

## MGSDKIHHHHHHMFGSKINHSDLQKLEEENKNLTHKIEKFQSENLELKNKITSLEQAALESKLKTDLLNVLLTGVLKNITIIQGDMLENVNKAEVISSYSKTSLAEMDELNHIANSINASLGNITESANKTRDVAGTLHRSVDEITNVINLIKDVSDQTNLLALNAAIEAARAGEHGRGFAVVADEVRKLAEKTQKATTEVEMNINLLKQNANEMYTQSEQVEKISIDSNAHIMSFSEKFTHLVNEAHSTNSNAVGIASEAFVSLAKLDHIAFKLNGYKEIFSKSGKQLADHTSCRLGKWLASTGKERFGQNKSFLKINEPHEKVHENMNNAITIANTEDISKDITQHSIINKCEVAENASLDLFNVFKEMLDESDH
  soluble on expression in E. coli: not soluble

## MIQIQGQPRPEPLLLVLPTATSPLNISSSNISSKSSRINNNNDNENDEEDDGRDLDVEMKTESEWPRIERPTPKYADGRRISAPAVLAHGLFEIPTSCSVQITVLQQLLDQSSTLSLEPTNSPDSGVGTDSTPETSPSSSTTRRHAFAPPPPRPRPPTVPLPTVTQQIPWQTSTIWPWIQQAQSASTADATQRWLQSALLCPTTSASHPNLLTIPQISVQPQPTAPQTLLTAAPFISSTVFTPTCGDLLTTCTPSNPSLLHPYLLDTSRRFSEPNPAPLAQRTPGKKQKDGQVTYLWEFLLRLLQDDQYSPKFIKWIDQAKGIFKLVDSKAVSRLWGMHKNKPGMNYETMGRALRYYYQRGILQKVDGQRLVYRFVHLPSDVASECDSSCESADSCDSPKISPISLKLMLQPATSASDEA
  soluble on expression in E. coli: not soluble

## MLDIRGVRKSFRKPDGSELLVLDGIDFTLGEGEIIGLLGRSGSGKSTLLRSIAGLTPPSAGSVIYHGNEVTAPPPGIAMVFQGFALFPWLTVLENVQLGLEALGLSTGELHRRAIEAIDLIGLDGFESAYPRELSGGMRQRVGFARALVVHPNILLMDEPFSALDVLTAETLRTDFLDLWSEGQLPIKGVILVTHNIEEAVLMCDRILIFGSNPGRILNEIKVELPHPRARLDPAFRDLVERIYVEMTTRSASVPAGRRTEYFPGTGIGTILPHVSSNSLSGLLEAVAAAPYNGEADLPVIASSLHMEIDELFPVAETLQMLRFAEVAGGDIRLTTEGRQFADFDTDRRKHLFARHLLTYVALAAHIRRVLDERPVHQAPWSRFADELEDYMPPAAAVQTLRTIIALGRYAEIFSYDDEKQVFSLDNPLEHHHHHH
  soluble on expression in E. coli: not soluble

## MLDQPLPAEQCTQEEVSSEDEDEEMPEDTEDLDHYEMKEEEPAEGKKSEDDGIGKENLAILEKIKKNQRQDYLNGAVSGSVQATDRLMKELRDIYRSQSFKGGNYAVELVNDSLYDWNVKLLKVDQDSALHNDLQILKEKEGADFILLNFSFKDNFPFDPPFVRVVSPVLSGGYVLGGGAICMELLTKQGWSSAYSIESVIMQISATLVKGKARVQFGANKSQYSLTRAQQSYKSLVQIHEKNGWYTPPKEDG
  soluble on expression in E. coli: soluble

## MSLARKGVAKHGISIRLACVVYGISETCYRYQAKLSGENALVADWMLRLTQTHKRWGFGLCFLYLRNVKGYTWNHKRVYRIYRELELNLRIKPRRRIQRDYPGELDVPTAPNQVWSMDFMSDQLVSGKTFRTFNVIDDYNREGLGIEVDLSLPAQRVIRALDQIIEWRGKPAAIRCDNGPEYISQSLIDWANRNRITMIYIQPGKPTQNAYIERFNRTARHEWLDLHQFESIAHAQLLATQWLWQYNNERPNTAIGGVPPSRLRKAAEGHHHHHH
  soluble on expression in E. coli: not soluble

## MSLDRGHEMSRYARQMILPQAGGEGQARLAGARVLVVGAGGLAASALPLLAGAGVGQIDIFDGDHIELSNLHRQTLFAEGDVGRAKAEVAAERCGALNSGIVLTGTKRSITPENVILACRDTDLVLDCADSYAASYLLSDTCQALGKPLISASVLGLGGYVGGFCGGAPSLRAVFPDAPDSAASCATAGVLGPVVSILGSIQAQMALSALLELAPSPLGQMVQIDALSWRNSTFRFDGAPEPATAFRFVAPSDLSADDLIVELRTEGEAPQPAHPSARRMTVSEIEISDTNKEKRLALCCATGLRAWRSAEQLQPIWPGEIVLVAAATSEGHHHHHH
  soluble on expression in E. coli: soluble

## SAGYNLEAIEAAPLKDDLDIVIPTIRSLDFLEQWRPFLHHYHLIIVQDGDPSIKIRVPEGYDYELYNRNDINRILGPRANCISYKDGGCRCFGFMVSKKKYIYTIDDDCFVAKDPSGKDINVIAQHIKNLETPSTPHYFNTLYDPFRDGTDFVRGYPFSLREGVQTAISHGLWLNIPDYDAPTQLVKPRERNTRYVDAVMTIPKRVLYPMCGMNLAFNRELVGPAMYFGLMGEGQPISRYDDMWAGWAAKVVCDHLGFGVKTGLPYLWHSKASNPFVNLKKEHKGLHWQEDMVPFFQNLRLSKESDTAAKCYMEISNMTKEKLTKVDPYFEKLADAMVVWIEAWEELNPPVKKKQSDGKDVKAK
  soluble on expression in E. coli: soluble

## SLRHQDDIAIEQSHFYVEKALQNRRENSEQFSTTYSFWTDAYVYLGNRVDADWAFTKNNLGSVLYTTNGYDGVFVIDDRGTRYAMLEGELSERSLADSLNADTGDILRSARRAAVDEAAISRYVDFDGAPAILVASAIKPTSDHAPIDLAKASVMVFVDRLTPAKLAKLGGDYGIANLHLLAGGAAGDKESLALEGTPHRLAWVSSRPGSA
  soluble on expression in E. coli: soluble
